The values below come from PubChem BioAssay AID248 (DTP/NCI, 2004).

The list is a part of this screen's results and no random one: it is rich in T/C values a quarter to a half above the control, in often repeated tests (any T/C) and in doses without a T/C. Further doses and runs are listed elsewhere. T/C is the treated group as % of the vehicle group. Some doses have a count of surviving animals in place of a T/C: the source holds a T/C of zero for them, seemingly a mark for toxic or unscored doses. Some survivor counts are full or nearly so, which does not show that the dose was tolerated: the source hardly ever lists a survival T/C far under the control, and the zero likely stands for such cases as well. Counts of survivors are from the toxicity check (mostly the fifth day) where no day follows; animals may have died later. Schedule codes are those of the source, taken here to give the interval after Q, in days (D) or hours (H), and the number of doses after X. Some doses were run more than once; the values are given in rising order. Some molecules as drawn cover several salts, stereoisomers or complexes of the source; a dose is that of the sample tested. Counts like (3×) count equal records among those shown. Some schedules carry Z or #; the key to these is not given. For survival time, the PubChem record calls one and a half times the control and up active, and a quarter to a half above the control has no call in these data; cut-offs in other NCI protocols can differ. Some T/C values are followed by the survivors on the day toxicity was checked, most often the fifth; without a count, all were alive then.

The experiment has as its system L1210 leukemia ip in BDF1 mice, survival T/C. In words: NCI In Vivo Anticancer Drug Screen. Data for tumor model L1210 Leukemia (intraperitoneal) in B6D2F1 (BDF1) mice. To be noted: T/C endpoint: mean survival time, higher T/C = longer survival.
Setting [1] is: dose: 400.0 mg/kg/injection, schedule: Q01DX009 (ip), vehicle: saline with Tween-80.
[2] abbreviates: dose: 100.0 mg/kg/injection, schedule: Q01DX009 (ip), vehicle: Klucel (hydroxypropylcellulose) (HPC).
Where [3] appears, read: dose: 100.0 mg/kg/injection, schedule: Q04DX003 (ip), vehicle: saline with Tween-80.
Where [4] appears, read: dose: 200.0 mg/kg/injection, schedule: Q04DX003 (ip), vehicle: saline with Tween-80.
The mark [5] stands for this setting: dose: 400.0 mg/kg/injection, schedule: Q04DX003 (ip), vehicle: saline with Tween-80.
The mark [6] stands for this setting: dose: 400.0 mg/kg/injection, schedule: Q01DX009 (ip), vehicle: Klucel (hydroxypropylcellulose) (HPC).
[7] abbreviates: dose: 200.0 mg/kg/injection, schedule: Q01DX009 (ip), vehicle: Klucel (hydroxypropylcellulose) (HPC).
[8] abbreviates: dose: 400.0 mg/kg/injection, schedule: Q04DX003 (ip), vehicle: Klucel (hydroxypropylcellulose) (HPC).
Where [9] appears, read: dose: 400.0 mg/kg/injection, schedule: Q01DX001 (ip), vehicle: carboxymethylcellulose (CMC).
The mark [10] stands for this setting: dose: 100.0 mg/kg/injection, schedule: Q01DX001 (ip), vehicle: carboxymethylcellulose (CMC).
Setting [11] is: dose: 200.0 mg/kg/injection, schedule: Q01DX001 (ip), vehicle: carboxymethylcellulose (CMC).
The mark [12] stands for this setting: dose: 400.0 mg/kg/injection, schedule: Q01DX009 (ip), vehicle: saline.

In the case of `NC(N)=Nc1ccc(C(=O)O)cc1`, the survivor count under setting [1] was 5 of 6.

For `CCN(CC)C(=S)SSC(=S)N(CC)CC`, under setting [2], the survivor count is 6 of 6.

In the case of `S=C(Nc1ccccc1)N(C1CCCCC1)C1CCCCC1`, the T/C runs as follows: (dose: 177.0 mg/kg/injection, schedule: Q01DX009 (ip), vehicle: saline with Tween-80) 125 % of control; (dose: 266.0 mg/kg/injection, schedule: Q01DX009 (ip), vehicle: saline with Tween-80) 127 % of control. For the setting “dose: 600.0 mg/kg/injection, schedule: Q01DX009 (ip), vehicle: saline with Tween-80”, the survivor count was 1 of 6.

In the case of `Cc1cc(F)ccc1[As](=O)(O)O`, the survivor count reads like this: (dose: 50.0 mg/kg/injection, schedule: Q04DX003 (ip), vehicle: saline with Tween-80) 2 of 6; under setting [3], 0 of 6 (2×); under setting [4], 0 of 6; under setting [5], 0 of 6.

On to `Cc1cc(Cl)c(C)c(C(=O)O)c1Cl`, for which the survivor count (dose: 400.0 mg/kg/injection, schedule: Q01DX001 (ip), vehicle: saline) was 1 of 6.

Turning to `Cc1c(C(=O)O)nnn1-c1ccccc1`, for the setting “dose: 300.0 mg/kg/injection, schedule: Q01DX001 (ip), vehicle: saline”, the survivor count is on record as 1 of 6.

Consider `CCOc1cc(N)ccc1C`, for which the survivor count under setting [6] is listed as 0 of 6.

Take `Cc1cccc(C)c1N1C(=O)C2C(C1=O)C1(Cl)C(Cl)=C(Cl)C2(Cl)C1(Cl)Cl` (configuration not stated): the survivor count under setting [7] is on record as 0 of 6 and the survivor count under setting [8] was 0 of 6.

Turning to `C(/CCc1ccccc1)=N\Nc1nnc(N/N=C/CCc2ccccc2)c2ccccc12`, the survivor count under setting [9] is given as 2 of 4.

For the compound `CCOc1ccc(OCC)c(NC(=O)Nc2ccccc2Cl)c1`, for the setting “dose: 100.0 mg/kg/injection, schedule: Q04DX002 (ip), vehicle: saline with Tween-80”, the survivor count is 3 of 3.

`OC1c2ccccc2CC1N1CCCCC1` (configuration not stated): the survivor count is on record as 2 of 6 (dose: 200.0 mg/kg/injection, schedule: Q01DX001 (ip), vehicle: saline with Tween-80) and 0 of 6 (dose: 400.0 mg/kg/injection, schedule: Q01DX001 (ip), vehicle: saline with Tween-80).

As for `CC(C)=CCC(N)C(C)c1ccccc1` (configuration not stated), the survivor count is, setting by setting: under setting [2], 0 of 6; under setting [7], 0 of 6; under setting [6], 0 of 6.

Consider `O=C(Nc1cccc(C2=NCCN2)c1)c1cccc2c(C(=O)Nc3cccc(C4=NCCN4)c3)cccc12`, for which the survivor count runs as follows: (dose: 30.0 mg/kg/injection, schedule: Q01DX Z (ip), vehicle: carboxymethylcellulose (CMC)) 0 of 6; (dose: 60.0 mg/kg/injection, schedule: Q01DX Z (ip), vehicle: carboxymethylcellulose (CMC)) 0 of 6; (dose: 120.0 mg/kg/injection, schedule: Q01DX Z (ip), vehicle: carboxymethylcellulose (CMC)) 0 of 6.

With `O=c1ccc2ccccc2n1Cc1ccc2ccccc2n1`, the survivor count by setting is: (dose: 100.0 mg/kg/injection, schedule: Q01DX001 (ip), vehicle: other) 6 of 6; (dose: 200.0 mg/kg/injection, schedule: Q01DX001 (ip), vehicle: other) 6 of 6; (dose: 400.0 mg/kg/injection, schedule: Q01DX001 (ip), vehicle: other) 0 of 6.

As for `Nc1nc(N)c2c(n1)CCCC2`, the survivor count runs as follows: under setting [3], 6 of 6; under setting [4], 2 of 6; under setting [5], 5 of 6.

For `Cc1ccc2c3nc4ccccc4c-3csc2c1`, the survivor count runs as follows: (dose: 50.0 mg/kg/injection, schedule: Q04DX003 (ip), vehicle: saline) 6 of 6; (dose: 80.0 mg/kg/injection, schedule: Q01DX009 (ip), vehicle: saline) 3 of 6 and 6 of 6; (dose: 100.0 mg/kg/injection, schedule: Q04DX003 (ip), vehicle: acetone) 4 of 6; (dose: 200.0 mg/kg/injection, schedule: Q04DX003 (ip), vehicle: acetone) 0 of 6; (dose: 400.0 mg/kg/injection, schedule: Q04DX003 (ip), vehicle: acetone) 1 of 6.

For `CC(=O)OC1=C(c2ccccc2)C(=O)c2ccccc21`, the survivor count (dose: 300.0 mg/kg/injection, schedule: Q01DX001 (ip), vehicle: Klucel (hydroxypropylcellulose) (HPC)) was 3 of 6.

In the case of `CC(C)=CCCC(C)C/C=N\O` (configuration not stated), the survivor count under setting [1] was 6 of 6.

Take `CC(=O)Nc1ccc2cnn(C(C)=O)c2c1`: the survivor count (dose: 400.0 mg/kg/injection, schedule: Q01DX009 (ip), vehicle: water) is 0 of 6.

Regarding `O=C(O)c1nc(SCc2ccccc2)n(Cc2ccccc2)c1C(=O)O`, the T/C under setting [10] is 88, 91, 95, 99, 100 % of control; the T/C under setting [11] is 88, 100 [4 of 6 alive], 102 % of control [2 of 3 alive]; the T/C under setting [9] was 91, 91 [2 of 3 alive], 91 [4 of 6 alive], 95 [2 of 3 alive], 96, 98 % of control [5 of 6 alive]. Further, the survivor count is, setting by setting: under setting [10], 3 of 3; under setting [11], 5 of 6 and 3 of 3; (dose: 400.0 mg/kg/injection, schedule: Q04DX003 (ip), vehicle: carboxymethylcellulose (CMC)) 1 of 3.

In the case of `CCN(CC)CC(=O)NCC(CC)(CCN(C)C)c1cccc2ccccc12` (configuration not stated), the survivor count reads like this: under setting [12], 0 of 6; (dose: 400.0 mg/kg/injection, schedule: Q04DX003 (ip), vehicle: saline) 1 of 6.

Consider `O=C(O)CCSSc1ccc([N+](=O)[O-])cc1[N+](=O)[O-]`, for which the survivor count (dose: 50.0 mg/kg/injection, schedule: Q01DX009 (ip), vehicle: Klucel (hydroxypropylcellulose) (HPC)) was 5 of 6.

For the compound `CN(C)N=Nc1ccc([N+](=O)[O-])cc1Cl`, for the setting “dose: 200.0 mg/kg/injection, schedule: Q01DX009 (ip), vehicle: saline with Tween-80”, the T/C was 138 % of control. Moreover, the survivor count by setting is: (dose: 300.0 mg/kg/injection, schedule: Q01DX009 (ip), vehicle: saline with Tween-80) 4 of 6; under setting [1], 6 of 6.

Consider `CC[N+](CC)(CC)CC(=O)NCc1ccco1`, for which, where the note is “dose: 400.0 mg/kg/injection, schedule: Q04DX002 (ip), vehicle: carboxymethylcellulose (CMC)”, the survivor count is reported as 3 of 6.

In the case of `O=C(Nc1ccccc1)N(O)c1ccccc1`, the survivor count (dose: 400.0 mg/kg/injection, schedule: Q01DX015 (ip), vehicle: methylcellulose (MC)) is 2 of 6.

Take `Cc1nc(N)[nH]c(=O)c1CCCC#N`: the T/C runs as follows: under setting [2], 98, 103, 110, 111 % of control; under setting [7], 89 [5 of 6 alive], 90, 99 % of control (2×); under setting [6], 87 [2 of 3 alive], 95 [2 of 3 alive], 125 % of control [4 of 6 alive]. For the same compound, the survivor count under setting [6] is 4 of 6 and the survivor count under setting [8] is listed as 5 of 6.

As for `CCCCCCCC[As](C)(=O)O`, the survivor count by setting is: (dose: 12.5 mg/kg/injection, schedule: Q01DX009 (ip), vehicle: saline with Tween-80) 1 of 3; (dose: 25.0 mg/kg/injection, schedule: Q01DX009 (ip), vehicle: saline with Tween-80) 0 of 3 and 1 of 3; (dose: 50.0 mg/kg/injection, schedule: Q01DX009 (ip), vehicle: saline with Tween-80) 1 of 3; (dose: 100.0 mg/kg/injection, schedule: Q01DX009 (ip), vehicle: saline with Tween-80) 0 of 3; (dose: 100.0 mg/kg/injection, schedule: Q01DX009 (ip), vehicle: saline) 0 of 6; (dose: 200.0 mg/kg/injection, schedule: Q01DX009 (ip), vehicle: saline) 0 of 6. Also, the survivor count under setting [12] was 0 of 6.

For `CC(C)C(CCCC(=O)O)C(=O)O` (configuration not stated), the survivor count under setting [9] is on record as 2 of 4.

As for `Cn1[nH]c(=O)[nH]c1=O`, the survivor count under setting [4] is reported as 6 of 6.

Consider `O=C1c2cc([N+](=O)[O-])ccc2-c2ccc([N+](=O)[O-])cc21`, for which the survivor count under setting [2] was 3 of 3.
